PubChem BioAssay AID1259405, NCATS, 2018
Test: 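Mouse-designed siRNAs used to find CHO productivity engineering targets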 (primary screen). System: Chinese hamster CHO-K1 ovary cells with stable secreted eGFP expression. Knock-down reagent: single siRNA against mouse genes, 0.8 pmol siRNA per well (2 µl of 400 nM stock). Time to read-out: 3 days. Measured: 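Percent of the per-plate non-targeting control median for intracellular GFP per well by laser scanning cytometry and for cell viability by ATP luminescence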. Scale: GFP, % of control: higher = more GFP per well, higher productivity; viability (ATP), % of control: higher = more viable cells (more ATP). Rule for the call: 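Called active when intracellular GFP, relative to negative control, is at or above 120%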.
The deposit covers about 50,000 reagents; below is a part drawn at random. Over the whole deposit, about 4,000 (8%) are marked active. 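Mouse siRNA library applied to hamster cells; one well for each siRNA.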 A number with no mark means an inactive call. Reagent sequences are not shown.

Col1a2 [SID363553736]
- GFP, % of control: 51.7
- viability (ATP), % of control: 36.7

Col1a2 [SID363561693]
- GFP, % of control: 115
- viability (ATP), % of control: 74

Col1a2 [SID363565431]
- GFP, % of control: 88.8
- viability (ATP), % of control: 84.9

Tpsg1 [SID363574530]
- GFP, % of control: 103
- viability (ATP), % of control: 81.7

Tpsg1 [SID363575586]
- GFP, % of control: 49.2
- viability (ATP), % of control: 43.2

Tpsg1 [SID363580162]
- GFP, % of control: 53.4
- viability (ATP), % of control: 87.2

Apobec3 [SID363545717]
- GFP, % of control: 58.3
- viability (ATP), % of control: 62.3

Apobec3 [SID363549230]
- GFP, % of control: 64.9
- viability (ATP), % of control: 88.3

Apobec3 [SID363563036]
- GFP, % of control: 79.8
- viability (ATP), % of control: 109

Zswim5 [SID363556764]
- GFP, % of control: 46.5
- viability (ATP), % of control: 61.5

Zswim5 [SID363563668]
- GFP, % of control: 194 (active)
- viability (ATP), % of control: 50.6

Zswim5 [SID363587214]
- GFP, % of control: 79.8
- viability (ATP), % of control: 100

Zswim5 [SID363589839]
- GFP, % of control: 83.1
- viability (ATP), % of control: 86.8

Zswim5 [SID363589840]
- GFP, % of control: 104
- viability (ATP), % of control: 104

Zswim5 [SID363589841]
- GFP, % of control: 124 (active)
- viability (ATP), % of control: 85.8

Vars2 [SID363545211]
- GFP, % of control: 72.9
- viability (ATP), % of control: 28.3

Vars2 [SID363548724]
- GFP, % of control: 84.2
- viability (ATP), % of control: 75

Vars2 [SID363562530]
- GFP, % of control: 70.6
- viability (ATP), % of control: 57.4

Entries listed so far marked active:
Zswim5 [SID363563668]
- GFP, % of control: 194 (active)
- viability (ATP), % of control: 50.6

Zswim5 [SID363589841]
- GFP, % of control: 124 (active)
- viability (ATP), % of control: 85.8
